Measurements: paper PMC5395757
Results are given in words; binding and its absence hold for the method and conditions named. Binding seen in cells or lysates may run through a third protein. Some results given as binding are weak or reduced against the parent protein; the word gives no strength.

By UniProt entry, the sequences of proteins in these tests, tags left out. Residues count along the entry.
UniProt P16070, residues 21-742: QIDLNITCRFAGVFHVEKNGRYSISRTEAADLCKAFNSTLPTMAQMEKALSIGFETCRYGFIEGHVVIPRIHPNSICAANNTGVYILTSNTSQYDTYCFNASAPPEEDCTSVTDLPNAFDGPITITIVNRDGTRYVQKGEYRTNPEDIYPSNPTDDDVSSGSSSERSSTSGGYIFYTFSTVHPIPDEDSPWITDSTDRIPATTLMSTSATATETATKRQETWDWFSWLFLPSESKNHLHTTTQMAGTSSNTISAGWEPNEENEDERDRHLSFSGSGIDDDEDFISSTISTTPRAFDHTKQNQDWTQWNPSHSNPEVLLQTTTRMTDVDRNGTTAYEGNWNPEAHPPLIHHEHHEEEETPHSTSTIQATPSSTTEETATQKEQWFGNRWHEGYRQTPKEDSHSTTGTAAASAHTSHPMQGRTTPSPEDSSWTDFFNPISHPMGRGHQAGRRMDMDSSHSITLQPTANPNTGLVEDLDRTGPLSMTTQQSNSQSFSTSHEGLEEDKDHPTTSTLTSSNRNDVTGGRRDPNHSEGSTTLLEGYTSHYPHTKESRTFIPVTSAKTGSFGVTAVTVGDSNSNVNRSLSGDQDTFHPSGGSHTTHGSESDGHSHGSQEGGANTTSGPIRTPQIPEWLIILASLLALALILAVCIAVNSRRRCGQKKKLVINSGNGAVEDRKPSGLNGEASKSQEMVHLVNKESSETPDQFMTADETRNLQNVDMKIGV

Molecular target: CD44 (human (endogenous in TIG-3S)) (UniProt P16070)
Assay: co-IP; IP of CD44 with anti-CD44 antibody and protein G magnetic beads, immunoblot of EGFR; lysis buffer 50 mM Tris-HCl pH 7.4, 150 mM NaCl, 0.1% SDS, 1% sodium deoxycholate, 1% NP-40; TIG-3S fibroblasts after TGF-β1 stimulation; control vs 2 mM BGN-treated, control vs 100 U/ml sialidase-treated EP fibroblasts; EP vs LP vs 2 mM zanamivir-treated LP fibroblasts

binding: binds
Substance: epidermal growth factor receptor (from UniProt P00533 25-1210)
